Assay results published in the supplement of paper PMC12819154, “High-throughput peptide-centric local stability assay extends protein–ligand identification to membrane proteins, tissues and bacteria” (Nature Structural & Molecular Biology, 2025).
The list shows a part of the results. Small differences around the control level are noise.

By UniProt entry, the sequences of proteins in these tests, tags left out. Where a name states a change or a piece, a line headed by the entry shows the natural chain unless it says otherwise.
UniProt Q15464: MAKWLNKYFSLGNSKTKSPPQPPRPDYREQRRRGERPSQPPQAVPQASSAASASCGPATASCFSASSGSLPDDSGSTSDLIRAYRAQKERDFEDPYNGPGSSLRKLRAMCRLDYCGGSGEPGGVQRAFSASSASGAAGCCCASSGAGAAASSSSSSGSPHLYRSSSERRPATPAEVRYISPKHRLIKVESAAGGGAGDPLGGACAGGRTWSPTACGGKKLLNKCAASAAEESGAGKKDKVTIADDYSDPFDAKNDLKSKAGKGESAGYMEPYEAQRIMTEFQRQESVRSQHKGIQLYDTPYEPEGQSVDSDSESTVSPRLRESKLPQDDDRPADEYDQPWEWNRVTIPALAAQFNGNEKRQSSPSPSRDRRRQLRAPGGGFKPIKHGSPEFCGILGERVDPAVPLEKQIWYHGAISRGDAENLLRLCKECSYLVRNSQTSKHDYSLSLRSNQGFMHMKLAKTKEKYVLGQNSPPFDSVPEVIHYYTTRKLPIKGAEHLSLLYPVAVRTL
UniProt Q15797: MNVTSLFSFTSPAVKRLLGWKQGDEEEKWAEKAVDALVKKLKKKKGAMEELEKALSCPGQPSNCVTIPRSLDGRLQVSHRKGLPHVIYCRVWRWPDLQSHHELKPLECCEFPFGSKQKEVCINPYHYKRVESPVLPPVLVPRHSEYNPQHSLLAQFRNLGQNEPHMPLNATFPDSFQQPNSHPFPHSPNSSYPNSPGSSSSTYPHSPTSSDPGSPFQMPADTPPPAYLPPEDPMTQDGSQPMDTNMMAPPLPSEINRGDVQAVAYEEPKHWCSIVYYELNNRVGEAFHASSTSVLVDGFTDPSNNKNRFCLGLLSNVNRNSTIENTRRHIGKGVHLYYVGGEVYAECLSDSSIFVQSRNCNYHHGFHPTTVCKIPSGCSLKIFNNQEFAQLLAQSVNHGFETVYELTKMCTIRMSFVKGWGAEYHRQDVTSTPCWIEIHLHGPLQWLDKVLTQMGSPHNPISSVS
UniProt Q16836: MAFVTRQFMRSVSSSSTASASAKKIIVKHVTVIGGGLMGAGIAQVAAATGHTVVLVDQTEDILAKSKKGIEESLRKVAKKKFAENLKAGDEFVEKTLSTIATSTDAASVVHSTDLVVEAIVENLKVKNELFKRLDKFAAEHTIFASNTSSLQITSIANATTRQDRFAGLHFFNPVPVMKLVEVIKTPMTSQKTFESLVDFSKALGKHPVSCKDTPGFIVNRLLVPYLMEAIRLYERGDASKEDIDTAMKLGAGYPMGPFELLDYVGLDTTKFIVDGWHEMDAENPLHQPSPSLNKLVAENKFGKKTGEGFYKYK
UniProt Q3L8U1: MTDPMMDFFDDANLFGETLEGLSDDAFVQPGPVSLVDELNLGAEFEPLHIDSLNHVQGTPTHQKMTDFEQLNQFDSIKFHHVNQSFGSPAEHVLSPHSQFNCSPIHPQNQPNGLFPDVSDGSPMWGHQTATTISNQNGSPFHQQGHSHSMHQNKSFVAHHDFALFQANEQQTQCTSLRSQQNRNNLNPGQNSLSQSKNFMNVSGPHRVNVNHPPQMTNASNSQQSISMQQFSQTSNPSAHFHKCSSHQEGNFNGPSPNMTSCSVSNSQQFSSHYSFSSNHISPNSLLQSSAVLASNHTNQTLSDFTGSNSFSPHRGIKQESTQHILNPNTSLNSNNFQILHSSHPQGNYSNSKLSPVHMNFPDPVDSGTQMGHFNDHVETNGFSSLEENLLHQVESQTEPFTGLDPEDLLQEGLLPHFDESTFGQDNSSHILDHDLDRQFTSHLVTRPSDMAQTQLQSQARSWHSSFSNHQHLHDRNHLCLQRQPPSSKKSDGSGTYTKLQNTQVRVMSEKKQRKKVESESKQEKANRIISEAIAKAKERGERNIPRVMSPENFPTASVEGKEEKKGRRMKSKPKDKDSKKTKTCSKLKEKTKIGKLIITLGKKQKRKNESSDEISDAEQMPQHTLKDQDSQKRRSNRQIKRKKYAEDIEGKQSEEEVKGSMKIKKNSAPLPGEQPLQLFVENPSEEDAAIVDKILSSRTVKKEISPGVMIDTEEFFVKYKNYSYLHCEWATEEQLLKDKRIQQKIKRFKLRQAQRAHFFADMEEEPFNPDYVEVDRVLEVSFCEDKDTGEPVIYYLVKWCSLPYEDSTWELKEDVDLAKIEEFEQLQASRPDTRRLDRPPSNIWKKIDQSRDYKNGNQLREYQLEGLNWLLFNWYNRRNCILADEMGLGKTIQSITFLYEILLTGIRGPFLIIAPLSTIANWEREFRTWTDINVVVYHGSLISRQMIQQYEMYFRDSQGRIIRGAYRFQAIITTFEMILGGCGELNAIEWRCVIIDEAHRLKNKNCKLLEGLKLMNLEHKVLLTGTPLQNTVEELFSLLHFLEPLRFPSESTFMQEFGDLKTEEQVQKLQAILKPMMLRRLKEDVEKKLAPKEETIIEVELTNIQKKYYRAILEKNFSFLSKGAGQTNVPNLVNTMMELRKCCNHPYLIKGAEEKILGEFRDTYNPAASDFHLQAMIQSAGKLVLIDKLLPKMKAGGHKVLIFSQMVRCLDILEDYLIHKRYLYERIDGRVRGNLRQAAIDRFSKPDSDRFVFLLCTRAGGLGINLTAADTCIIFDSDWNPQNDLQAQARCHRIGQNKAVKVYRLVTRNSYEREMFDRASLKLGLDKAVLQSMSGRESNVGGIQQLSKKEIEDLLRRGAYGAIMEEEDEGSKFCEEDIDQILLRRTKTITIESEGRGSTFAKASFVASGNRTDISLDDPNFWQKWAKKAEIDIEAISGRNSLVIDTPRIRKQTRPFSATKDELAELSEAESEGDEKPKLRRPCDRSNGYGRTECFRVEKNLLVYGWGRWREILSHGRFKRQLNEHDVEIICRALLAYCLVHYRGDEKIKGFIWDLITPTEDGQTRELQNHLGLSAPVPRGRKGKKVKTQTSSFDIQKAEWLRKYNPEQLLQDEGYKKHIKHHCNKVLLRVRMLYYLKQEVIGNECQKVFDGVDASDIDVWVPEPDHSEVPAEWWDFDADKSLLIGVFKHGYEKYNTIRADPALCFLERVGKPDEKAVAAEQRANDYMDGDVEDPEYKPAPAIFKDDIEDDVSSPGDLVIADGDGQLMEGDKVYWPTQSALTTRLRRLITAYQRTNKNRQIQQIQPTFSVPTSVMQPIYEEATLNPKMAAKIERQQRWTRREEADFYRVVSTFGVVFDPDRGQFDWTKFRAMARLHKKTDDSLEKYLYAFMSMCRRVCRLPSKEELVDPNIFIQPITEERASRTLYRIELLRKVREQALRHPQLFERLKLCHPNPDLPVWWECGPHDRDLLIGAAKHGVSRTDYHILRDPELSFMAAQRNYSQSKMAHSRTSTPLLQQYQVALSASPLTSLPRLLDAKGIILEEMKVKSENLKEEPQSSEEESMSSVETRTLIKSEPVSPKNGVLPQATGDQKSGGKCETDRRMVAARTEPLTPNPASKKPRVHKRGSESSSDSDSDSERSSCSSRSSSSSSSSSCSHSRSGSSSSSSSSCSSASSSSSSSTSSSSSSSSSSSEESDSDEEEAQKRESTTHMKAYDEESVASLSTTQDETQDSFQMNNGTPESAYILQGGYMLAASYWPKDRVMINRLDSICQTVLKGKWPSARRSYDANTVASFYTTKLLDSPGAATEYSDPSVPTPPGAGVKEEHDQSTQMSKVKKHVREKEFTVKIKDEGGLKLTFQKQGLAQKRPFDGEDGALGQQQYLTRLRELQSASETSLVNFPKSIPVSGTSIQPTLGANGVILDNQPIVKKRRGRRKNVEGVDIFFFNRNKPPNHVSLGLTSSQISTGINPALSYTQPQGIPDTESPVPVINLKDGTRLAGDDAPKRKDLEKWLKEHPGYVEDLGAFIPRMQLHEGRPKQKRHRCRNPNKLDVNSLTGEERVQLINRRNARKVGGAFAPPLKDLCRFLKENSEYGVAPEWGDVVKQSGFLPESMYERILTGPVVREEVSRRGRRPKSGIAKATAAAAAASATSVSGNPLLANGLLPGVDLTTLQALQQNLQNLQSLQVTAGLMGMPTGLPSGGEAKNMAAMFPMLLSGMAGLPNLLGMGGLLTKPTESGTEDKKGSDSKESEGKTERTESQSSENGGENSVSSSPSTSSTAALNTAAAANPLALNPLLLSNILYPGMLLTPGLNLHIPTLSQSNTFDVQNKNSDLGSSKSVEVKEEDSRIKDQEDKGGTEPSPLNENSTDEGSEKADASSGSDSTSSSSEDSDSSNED
UniProt Q15650: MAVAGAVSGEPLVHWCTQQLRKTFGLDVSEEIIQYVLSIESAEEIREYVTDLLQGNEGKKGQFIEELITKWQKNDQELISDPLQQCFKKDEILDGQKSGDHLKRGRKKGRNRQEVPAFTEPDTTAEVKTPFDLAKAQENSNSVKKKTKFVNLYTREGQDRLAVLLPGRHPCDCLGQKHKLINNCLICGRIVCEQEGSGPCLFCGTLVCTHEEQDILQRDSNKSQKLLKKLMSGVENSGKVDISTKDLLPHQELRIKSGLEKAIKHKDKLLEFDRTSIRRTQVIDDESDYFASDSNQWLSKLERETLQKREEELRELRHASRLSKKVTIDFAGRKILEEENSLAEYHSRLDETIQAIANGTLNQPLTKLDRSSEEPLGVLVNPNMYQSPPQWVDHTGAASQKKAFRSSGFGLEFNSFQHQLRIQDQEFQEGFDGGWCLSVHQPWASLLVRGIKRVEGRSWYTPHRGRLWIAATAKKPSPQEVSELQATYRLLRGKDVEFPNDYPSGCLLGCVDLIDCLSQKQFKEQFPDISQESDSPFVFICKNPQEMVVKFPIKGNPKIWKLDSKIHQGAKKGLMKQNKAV
UniProt Q15651: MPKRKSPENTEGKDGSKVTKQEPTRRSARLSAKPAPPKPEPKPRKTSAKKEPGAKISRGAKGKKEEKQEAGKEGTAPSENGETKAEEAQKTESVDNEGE
UniProt Q15257: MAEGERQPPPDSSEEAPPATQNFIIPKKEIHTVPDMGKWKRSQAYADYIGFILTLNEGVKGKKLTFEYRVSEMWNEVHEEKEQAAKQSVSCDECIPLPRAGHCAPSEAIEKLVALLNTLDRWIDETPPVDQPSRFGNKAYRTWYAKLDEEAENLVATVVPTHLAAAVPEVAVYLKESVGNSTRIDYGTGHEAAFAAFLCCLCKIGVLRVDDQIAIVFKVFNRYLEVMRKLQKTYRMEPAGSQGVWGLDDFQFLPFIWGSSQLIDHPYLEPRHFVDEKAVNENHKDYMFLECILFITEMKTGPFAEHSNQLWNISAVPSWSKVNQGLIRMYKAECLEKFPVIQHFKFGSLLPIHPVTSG
UniProt Q16637, whole entry: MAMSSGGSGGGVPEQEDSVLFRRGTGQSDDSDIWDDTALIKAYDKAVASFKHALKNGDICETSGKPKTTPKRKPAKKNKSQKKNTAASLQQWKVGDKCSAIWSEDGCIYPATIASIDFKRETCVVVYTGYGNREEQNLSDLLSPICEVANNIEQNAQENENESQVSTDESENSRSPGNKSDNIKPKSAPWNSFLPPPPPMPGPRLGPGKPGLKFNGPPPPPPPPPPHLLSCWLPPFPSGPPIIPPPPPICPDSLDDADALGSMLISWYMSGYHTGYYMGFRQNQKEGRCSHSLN
UniProt Q1KMD3: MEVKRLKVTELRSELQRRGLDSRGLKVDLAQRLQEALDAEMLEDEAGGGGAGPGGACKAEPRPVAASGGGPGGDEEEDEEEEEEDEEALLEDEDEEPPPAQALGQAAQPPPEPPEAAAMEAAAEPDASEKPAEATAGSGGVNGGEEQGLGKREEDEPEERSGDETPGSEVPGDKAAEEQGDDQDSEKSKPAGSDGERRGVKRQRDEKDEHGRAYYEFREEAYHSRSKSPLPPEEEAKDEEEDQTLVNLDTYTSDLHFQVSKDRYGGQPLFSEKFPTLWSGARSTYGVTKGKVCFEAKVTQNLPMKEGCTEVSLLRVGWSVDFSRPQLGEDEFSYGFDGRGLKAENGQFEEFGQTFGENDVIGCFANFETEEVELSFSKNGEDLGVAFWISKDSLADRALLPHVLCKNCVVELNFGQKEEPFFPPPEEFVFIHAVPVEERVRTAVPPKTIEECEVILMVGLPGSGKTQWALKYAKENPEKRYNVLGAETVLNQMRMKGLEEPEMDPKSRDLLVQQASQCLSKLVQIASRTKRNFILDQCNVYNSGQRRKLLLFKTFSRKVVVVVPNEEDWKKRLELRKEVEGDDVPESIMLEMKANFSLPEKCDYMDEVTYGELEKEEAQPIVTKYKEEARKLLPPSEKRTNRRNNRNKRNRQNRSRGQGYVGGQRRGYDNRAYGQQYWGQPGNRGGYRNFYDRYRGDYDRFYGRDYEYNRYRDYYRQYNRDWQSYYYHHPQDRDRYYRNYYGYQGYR
UniProt Q16854: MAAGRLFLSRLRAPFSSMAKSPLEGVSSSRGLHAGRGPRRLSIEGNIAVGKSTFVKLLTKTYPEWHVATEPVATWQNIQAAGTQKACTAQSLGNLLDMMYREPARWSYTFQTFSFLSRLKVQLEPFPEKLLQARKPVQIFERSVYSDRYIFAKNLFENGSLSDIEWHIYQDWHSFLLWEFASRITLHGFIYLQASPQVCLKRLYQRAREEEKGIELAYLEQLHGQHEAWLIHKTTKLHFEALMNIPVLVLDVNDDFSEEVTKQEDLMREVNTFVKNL

compound: CN[C@@H]1C[C@H]2O[C@@](C)([C@@H]1OC)n1c3ccccc3c3c4c(c5c6ccccc6n2c5c31)C(=O)NC4 [staurosporine]; test: log2 fold change of tryptic peptide abundance, ligand vs vehicle (limited proteolysis) (log2 ratio); higher = more trypsin-susceptible (destabilized); details: ligand concentration: 20 uM; sample: K562 cleared lysate; digestion: 4 min, 22 C (HT-PELSA RT4min, Orbitrap Astral)

How did the log2 fold change turn out when “CNN3 (peptide sequence: GPSYGLSAEVK, peptide start residue: 9) (UniProt Q15417)” was run?
The log2 fold change was -0.0426.

“SHB (peptide sequence: CAASAAEESGAGK, peptide start residue: 224) (UniProt Q15464)” was tested. Which log2 fold change did it give?
Its log2 fold change is 1.52.

“SMAD1 (peptide sequence: EVCINPYHYK, peptide start residue: 120) (UniProt Q15797)” was tested. Which log2 fold change did it give?
The log2 fold change was 0.166.

With “UniProt Q3LXA3 (peptide sequence: VCSTLLGLEEHLNALDR, peptide start residue: 381)” as the target, how does the log2 fold change read?
The log2 fold change was 0.139.

For “UniProt Q3SXM0 (peptide sequence: SGEIFAIDLR, peptide start residue: 345)”, which log2 fold change is on record?
Its log2 fold change is 0.361.

How did the log2 fold change turn out when “MEA1 (peptide sequence: EISDAQWEDVVQK, peptide start residue: 161) (UniProt Q16626)” was run?
Its log2 fold change is -0.135.

For “UniProt Q16206 (peptide sequence: LLQQALQGMQQHLLK, peptide start residue: 456)”, which log2 fold change is on record?
The log2 fold change was -0.583.

For “HADH (peptide sequence: FAGLHFFNPVPVMK, peptide start residue: 166) (UniProt Q16836)”, which log2 fold change is on record?
The log2 fold change was 0.747.

How did the log2 fold change turn out when “BMT2 (peptide sequence: IEWCCSVCR, peptide start residue: 96) (UniProt Q1RMZ1)” was run?
The log2 fold change was 0.578.

Which log2 fold change does the source give for “UniProt Q2TAY7 (peptide sequence: GVTCLSFSK, peptide start residue: 309)” here?
The log2 fold change was -0.514.

“LONRF2 (peptide sequence: LEEGDEAFR, peptide start residue: 27) (UniProt Q1L5Z9)” was tested. Which log2 fold change did it give?
Its log2 fold change is -0.158.

With “EIF4H (peptide sequence: EEVVQKEQE, peptide start residue: 240) (UniProt Q15056)” as the target, how does the log2 fold change read?
The log2 fold change was -0.112.

“CHD9 (peptide sequence: ESNVGGIQQLSK, peptide start residue: 1338) (UniProt Q3L8U1)” was tested. Which log2 fold change did it give?
Its log2 fold change is 0.214.

Which log2 fold change does the source give for “TRIP4 (peptide sequence: KVTIDFAGR, peptide start residue: 325) (UniProt Q15650)” here?
The log2 fold change was 0.215.

“UniProt Q15651 (peptide sequence: EGTAPSENGETK, peptide start residue: 73)” was tested. Which log2 fold change did it give?
Its log2 fold change is -0.272.

“ZRSR2 (peptide sequence: KLKEQWEEQQR, peptide start residue: 106) (UniProt Q15696)” was tested. Which log2 fold change did it give?
The log2 fold change was -0.435.

Which log2 fold change does the source give for “UniProt Q15257 (peptide sequence: VSEMWNEVHEEKEQAAK, peptide start residue: 70)” here?
The log2 fold change was -0.261.

With “TUBB8 (peptide sequence: AVLVDLEPGTMDSVR, peptide start residue: 63) (UniProt Q3ZCM7)” as the target, how does the log2 fold change read?
The log2 fold change was -0.126.

With “VAMP3 (peptide sequence: LQQTQNQVDEVVDIMR, peptide start residue: 15) (UniProt Q15836)” as the target, how does the log2 fold change read?
Its log2 fold change is -0.068.

How did the log2 fold change turn out when “UniProt Q16637 (peptide sequence: SPGNKSDNIKPK, peptide start residue: 175)” was run?
Its log2 fold change is -0.526.

With “RABEP1 (peptide sequence: INAEFLR, peptide start residue: 24) (UniProt Q15276)” as the target, how does the log2 fold change read?
The log2 fold change was -0.292.

“HNRNPUL2 (peptide sequence: YGGQPLFSEK, peptide start residue: 264) (UniProt Q1KMD3)” was tested. Which log2 fold change did it give?
The log2 fold change was 0.265.

“DBN1 (peptide sequence: TDAAVEMK, peptide start residue: 166) (UniProt Q16643)” was tested. Which log2 fold change did it give?
The log2 fold change was -0.143.

Which log2 fold change does the source give for “DGUOK (peptide sequence: SPLEGVSSSR, peptide start residue: 21) (UniProt Q16854)” here?
Its log2 fold change is 0.113.

With “PPA1 (peptide sequence: GISCMNTTLSESPFKCDPDAAR, peptide start residue: 239) (UniProt Q15181)” as the target, how does the log2 fold change read?
Its log2 fold change is 0.946.
